Source: paper PMC5041083
These are yes or no findings as the source states them, for the method shown. In cells and extracts the contact can be indirect. Some binding calls cover weakened binding; strength is not graded here. Sequences can lack the tags named with a protein.

Protein sequences, listed by entry. Tags and fused reporters are not part of them.
UniProt P49674: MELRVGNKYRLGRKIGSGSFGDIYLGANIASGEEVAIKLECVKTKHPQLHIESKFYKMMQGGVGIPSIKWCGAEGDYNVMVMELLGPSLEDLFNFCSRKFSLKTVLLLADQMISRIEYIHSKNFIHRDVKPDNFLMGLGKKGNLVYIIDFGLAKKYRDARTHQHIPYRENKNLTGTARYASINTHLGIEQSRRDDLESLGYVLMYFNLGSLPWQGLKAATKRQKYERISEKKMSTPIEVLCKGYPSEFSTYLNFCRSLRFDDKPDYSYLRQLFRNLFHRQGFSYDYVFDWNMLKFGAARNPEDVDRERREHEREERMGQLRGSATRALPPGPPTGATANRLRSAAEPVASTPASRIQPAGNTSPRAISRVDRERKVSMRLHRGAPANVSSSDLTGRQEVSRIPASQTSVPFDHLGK

Biological target: T1, FAM83H-FLAG (UniProt Q6ZRV2)
T1 sequence: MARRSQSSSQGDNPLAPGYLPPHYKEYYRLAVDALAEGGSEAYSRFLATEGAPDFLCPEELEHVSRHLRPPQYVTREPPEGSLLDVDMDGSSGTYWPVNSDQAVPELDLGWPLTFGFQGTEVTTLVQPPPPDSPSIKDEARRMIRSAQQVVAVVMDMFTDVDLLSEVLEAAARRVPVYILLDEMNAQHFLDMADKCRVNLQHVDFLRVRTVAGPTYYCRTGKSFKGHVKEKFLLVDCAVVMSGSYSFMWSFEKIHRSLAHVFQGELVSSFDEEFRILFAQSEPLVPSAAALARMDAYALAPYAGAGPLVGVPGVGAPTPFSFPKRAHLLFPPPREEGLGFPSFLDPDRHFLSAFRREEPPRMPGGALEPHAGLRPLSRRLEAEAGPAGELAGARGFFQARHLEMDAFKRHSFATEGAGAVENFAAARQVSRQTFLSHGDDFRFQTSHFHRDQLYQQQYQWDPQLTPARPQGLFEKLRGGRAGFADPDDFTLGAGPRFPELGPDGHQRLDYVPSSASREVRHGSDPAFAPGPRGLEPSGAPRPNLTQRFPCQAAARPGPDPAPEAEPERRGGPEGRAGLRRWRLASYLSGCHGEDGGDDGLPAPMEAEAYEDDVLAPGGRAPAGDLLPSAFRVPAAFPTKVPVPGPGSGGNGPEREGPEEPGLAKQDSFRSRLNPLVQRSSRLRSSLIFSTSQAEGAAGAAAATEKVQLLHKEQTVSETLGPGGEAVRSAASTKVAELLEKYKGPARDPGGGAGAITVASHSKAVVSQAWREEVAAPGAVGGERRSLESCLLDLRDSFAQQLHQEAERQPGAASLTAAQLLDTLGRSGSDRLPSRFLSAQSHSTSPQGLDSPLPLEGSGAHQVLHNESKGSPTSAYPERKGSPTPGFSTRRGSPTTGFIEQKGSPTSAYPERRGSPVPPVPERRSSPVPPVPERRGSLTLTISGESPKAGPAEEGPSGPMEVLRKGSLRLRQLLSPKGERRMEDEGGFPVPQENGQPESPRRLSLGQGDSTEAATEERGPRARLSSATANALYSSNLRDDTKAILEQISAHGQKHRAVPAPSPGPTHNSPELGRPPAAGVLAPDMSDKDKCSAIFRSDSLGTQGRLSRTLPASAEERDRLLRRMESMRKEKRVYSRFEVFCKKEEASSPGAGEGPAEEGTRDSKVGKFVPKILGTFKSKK
Assay: co-IP; RKO-F3 cells stably expressing FAM83H-FLAG and RKO-C1 control cells; lysate in PBS with Triton X-100, sonicated; anti-FLAG antibody not cross-linked to Protein G Dynabeads; Western blot (Fig. 5g)

- binding: binds
Substance: casein kinase 1ε (from UniProt P49674 1-416) (enzyme)
